Measured values taken from PubChem BioAssay AID540256 (National Center for Advancing Translational Sciences (NCATS), 2011).
Out of some 300,000 compounds screened, about 3,700 (1.2%) were called active. The shares of active, inactive and inconclusive entries below differ from those in the screen. Calls come from the whole dose curve; tested in HEK293 cells. Potencies beside an inconclusive call are fits to weak or partial responses and may not hold up.
% is set by controls: 0 for no effect and ±100 for the full control effect; potency is the fitted concentration of half-maximal effect.

Test: qHTS for Inhibitors of binding or entry into cells for Lassa Virus; note: nearly all actives have a fitted effect of over 50% in size
Settings: Lassa virus pseudotype entry inhibition, cell reporter; activity change, negative = inhibition: at 37.9 µM (top of the series) unless noted
For `COc1ccc(C2CC(C(F)(F)F)n3nc(CO)c(Cl)c3N2)cc1OC` (stereo unspecified), the Potency was inconclusive: 32.6 µM [activator, single point].
With `CCOC(=O)c1c(C(=O)OCC)c(C)n(CCc2ccccc2)c1C` the Potency was inconclusive: 35.5 µM [inhibitor, single point].
In the case of `COc1ccc(CNS(=O)(=O)c2ccc(N3CCCCS3(=O)=O)cc2)cc1`, the “activity change, negative = inhibition” value is reported as inactive: -17.6% [at 46.1 µM].
In the case of `CS(=O)(=O)c1ccc(S(=O)CC(=O)OCc2ccccc2)c([N+](=O)[O-])c1` (stereo unspecified), the Potency is reported as inconclusive: 25.1 µM [inhibitor, single point].
With `Cc1ccc(NC(=O)Cn2nc(C(=O)Nc3ccc(C)cc3)ccc2=O)cc1` the Potency was inconclusive: 5.62 µM [activator, single point].
With `CCOc1ccc(C(=O)N2CCn3c2nc2ccccc23)cc1` the Potency was inconclusive: 15.8 µM [activator, single point].
In the case of `O=C(CCN1C(=O)COc2ccccc21)N1CCN(c2ccccn2)CC1`, the Potency is reported as inconclusive: 6.51 µM [inhibitor, partial curve, poor fit].
For `CC(C)OC(=O)c1ccc(NC(=O)c2ccccc2)cc1`, the Potency was inconclusive: 7.94 µM [activator, partial curve, poor fit].
With `Cn1c(/N=C/c2cccs2)nc2ccccc21` the Potency was inconclusive: 9.2 µM [activator, partial curve, poor fit].
In the case of `Cc1ccc(C)c(-n2c(-c3ccc(Br)cc3)csc2=NC(=O)c2ccccc2F)c1`, the Potency is reported as inconclusive: 2.82 µM [inhibitor, full curve, poor fit].
In the case of `COc1ccc(S(=O)(=O)NCC(c2ccco2)S(=O)(=O)c2ccc(C)cc2)cc1F` (stereo unspecified), the Potency is reported as inconclusive: 6.31 µM [inhibitor, partial curve, poor fit].
For `C=CCn1c(C)cc(C(=O)Cn2ncc(Cl)c(Cl)c2=O)c1C`, the Potency was inconclusive: 3.66 µM [inhibitor, partial curve, poor fit].
In the case of `COc1ccccc1/C=N/NC(=S)Nc1cccnc1`, the “activity change, negative = inhibition” value is reported as inactive: -10.3%.
With `CCOC(=O)C1=C(c2ccccc2)NC(=S)NC1c1ccc(C)c([N+](=O)[O-])c1` (stereo unspecified) the Potency was inconclusive: 6.51 µM [inhibitor, partial curve, poor fit].
In the case of `ClCCN(CCCl)c1ccc(C=NNc2ncccn2)cc1`, the Potency is reported as inconclusive: 2.51 µM [inhibitor, full curve].
In the case of `COC(=O)c1ccccc1NC(=O)C1CC(=O)N(c2ccc(OC)cc2)C1` (stereo unspecified), the Potency is reported as inconclusive: 10 µM [inhibitor, partial curve, poor fit].
For `CCOc1cc(Br)ccc1S(=O)(=O)NCc1ccccc1`, the “activity change, negative = inhibition” value was inactive: -0.545%.
With `O=C(CSc1nnc(-c2ccccn2)o1)Nc1ccccc1C(F)(F)F` the “activity change, negative = inhibition” value was inactive: -13.6% [at 46.1 µM].
For `CCCCOc1ccc(-c2nn(-c3ccccc3)cc2C2NC(=O)NC(C)=C2C(=O)OCC)cc1` (stereo unspecified), the Potency was inconclusive: 0.501 µM [inhibitor, full curve, poor fit].
In the case of `CCCN(CCC)CC(=O)Nc1cccc2c1OCO2`, the “activity change, negative = inhibition” value is reported as inactive: 16.6%.
With `CCN(c1ccccc1)S(=O)(=O)c1cc(C(=O)Nc2ccc(F)c(F)c2)ccc1F` the Potency was active: 14.1 µM.
For `COC(=O)c1[nH]c2ccc(C)cc2c1NS(=O)(=O)c1ccc(F)cc1`, the Potency was inconclusive: 14.1 µM [inhibitor, single point].
With `CCOC(=O)N1CCN(C(=O)CN(c2cccc(C)c2)S(=O)(=O)c2ccccc2)CC1` the “activity change, negative = inhibition” value was inactive: -23.9%.
In the case of `O=C(Nc1ccc(Br)cc1)c1ccc(F)c(S(=O)(=O)NCc2cccs2)c1`, the Potency is reported as active: 3.98 µM.
In the case of `CC(CCc1ccccc1)NC(=O)COC(=O)c1cccnc1Cl` (stereo unspecified), the Potency is reported as inconclusive: 0.794 µM [inhibitor, single point].
With `COc1ccc(N2C3=C(C(=O)CC(C)(C)C3)C(c3cnn(C)c3)C3=C2CC(C)(C)CC3=O)cc1` the Potency was inconclusive: 2.82 µM [inhibitor, full curve].
For `Cc1ccc2c(CC(=O)Nc3sccc3C(N)=O)coc2c1`, the Potency was inconclusive: 15.8 µM [inhibitor, single point].
For `COc1ccc(-c2nn(-c3ccccc3)cc2N)cc1`, the “activity change, negative = inhibition” value was inactive: -11.5%.
In the case of `O=C(Nc1cccc(/C=C/c2ccccn2)c1)c1ccc(-n2cncn2)cc1`, the Potency is reported as inconclusive: 31.6 µM [inhibitor, single point].
With `Cc1ccc(NC(=O)c2ccc(CSc3nnc(-c4ccncc4)n3C)cc2)cc1` the “activity change, negative = inhibition” value was inactive: 4.03%.
In the case of `COc1ccc2ccccc2c1CN1CCN(C(=O)c2ccccc2)CC1`, the Potency is reported as inconclusive: 35.5 µM [inhibitor, partial curve, poor fit].
With `Cc1cc(C(F)(F)F)n2nc(-c3ccc(Br)cc3)cc2n1` the “activity change, negative = inhibition” value was inactive: 2.99% [at 46.1 µM].
For `c1ccc(C(c2nnnn2C2CCCC2)N2CCN(c3ccccc3)CC2)cc1` (stereo unspecified), the Potency was active: 18.3 µM.
For `Cc1cc(NC(=O)Nc2ccccc2F)ccc1Br`, the Potency was inconclusive: 8.91 µM [inhibitor, partial curve, poor fit].
For `O=C1OCCN1C(=O)[C@H]1[C@H](c2ccc(Cl)cc2)C(c2cccc(Cl)c2)=NN1c1ccccc1`, the Potency was inconclusive: 32.6 µM [inhibitor, single point].
For `O=C(O)c1oc2ccccc2c1CSCc1ccccc1`, the Potency was inconclusive: 35.5 µM [inhibitor, single point].
With `Nc1ccc(C(=O)NC23CC4CC(CC(C4)C2)C3)cc1` the Potency was inconclusive: 0.891 µM [inhibitor, single point].
For `COc1ccc(/C=N\NC(=O)c2ccccc2Br)cc1COc1c(F)c(F)cc(F)c1F`, the Potency was inconclusive: 12.6 µM [inhibitor, partial curve, poor fit].
With `COc1ccccc1N1CCN(C(=O)CN2C(=O)c3ccccc3S2(=O)=O)CC1` the Potency was inconclusive: 1.41 µM [inhibitor, partial curve, poor fit].
With `Cc1c(Cl)cccc1NC(=O)c1cccc(NC(=O)N2CCSc3ncccc32)c1` the Potency was inconclusive: 7.08 µM [activator, partial curve, poor fit].
For `Cn1cc([N+](=O)[O-])c(C(=O)NC2CCCC2)n1`, the Potency was inconclusive: 6.31 µM [activator, partial curve, poor fit].
For `Cc1cc2oc(=O)sc2cc1NS(=O)(=O)c1ccccc1`, the Potency was active: 11.2 µM.
In the case of `Cc1ccc(S(=O)(=O)NCC(=O)OC(C)C(=O)NCc2ccc3c(c2)OCO3)cc1` (stereo unspecified), the Potency is reported as inconclusive: 1.26 µM [inhibitor, single point].
With `Cc1cc(C(=O)N2CCN(c3ncccn3)CC2)c(C)o1` the Potency was inconclusive: 6.51 µM [activator, single point].
In the case of `Cc1ccnc2c(N3C(=O)C4C5c6ccccc6C(c6ccccc65)C4C3=O)cccc12` (stereo unspecified), the Potency is reported as active: 20.6 µM.
For `Cc1c(C(=O)OCCN2CCCCC2)oc2ccccc12`, the Potency was inconclusive: 18.3 µM [activator, partial curve, poor fit].
With `COc1ccc(OCc2ccc(-c3nc4ccccc4c(=O)n3N)o2)cc1` the Potency was inconclusive: 5.62 µM [activator, single point].
With `Cc1nn(CC(=O)Nc2c(F)cc(F)cc2Br)c(=O)c2cccn12` the Potency was inconclusive: 0.355 µM [activator, full curve, poor fit].
For `CCOC(=O)c1ccc(N2C(=O)c3[nH]nc(-c4ccc(C)cc4)c3C2c2cccc(F)c2)cc1` (stereo unspecified), the Potency was inconclusive: 22.4 µM [inhibitor, single point].
In the case of `COc1cc(C(=O)Nc2ccccc2N2CCOCC2)ccc1OCC(=O)N1CCOCC1`, the “activity change, negative = inhibition” value is reported as inactive: 11%.
In the case of `O=c1nccc(N/N=C/c2ccccc2O)[nH]1`, the Potency is reported as inconclusive: 6.31 µM [inhibitor, full curve, poor fit].
In the case of `Cc1ccc(C)c(-c2cc(C(=O)NN3CCOCC3)c3ccccc3n2)c1`, the Potency is reported as inconclusive: 11.2 µM [inhibitor, partial curve, poor fit].
For `COc1ccccc1N1CCN(C(=O)c2ccc3[nH]c4c(c3c2)CCCC4)CC1`, the Potency was inconclusive: 35.5 µM [inhibitor, partial curve, poor fit].
For `CC1CCC2(CC1)NC(=O)N(CC(=O)N1c3ccccc3CC1C)C2=O` (stereo unspecified), the “activity change, negative = inhibition” value was inactive: -1.54%.
For `O=C(NCc1ccccc1)NC(=O)c1ccc(Cl)cc1`, the “activity change, negative = inhibition” value was inactive: -0.712% [at 46.1 µM].
With `NC(N)=NN=C1c2ccccc2-c2ccccc21` the “activity change, negative = inhibition” value was inactive: 18.3% [at 46.1 µM].
In the case of `CN(C)C1(c2nnnn2CCOC(=O)Nc2ccc(Cl)cc2)CCCCC1`, the Potency is reported as inconclusive: 35.5 µM [inhibitor, single point].
In the case of `O=C(NC(=S)Nc1nc(-c2ccccc2)cs1)c1cncc(Br)c1`, the Potency is reported as inconclusive: 0.146 µM [inhibitor, full curve].
For `CN(c1ccccc1)S(=O)(=O)c1cc(C(=O)Nc2nc3ccccc3[nH]2)ccc1Cl`, the Potency was inconclusive: 25.1 µM [inhibitor, single point].
For `O=C(/C=C\c1ccc2c(c1)OCO2)CC1(O)C(=O)Nc2ccccc21` (stereo unspecified), the Potency was inconclusive: 11.2 µM [inhibitor, partial curve, poor fit].
For `Cc1cc2oc(C(=O)Nc3ccc(S(N)(=O)=O)cc3)cc(=O)c2cc1C`, the “activity change, negative = inhibition” value was inactive: 6.6% [at 46.1 µM].
In the case of `CC1(C)Cc2c(sc3nnn(Cc4ccccc4)c(=O)c23)CO1`, the Potency is reported as inconclusive: 29.1 µM [inhibitor, single point].
For `CCOC(=O)c1cnn2c(C)cc(-c3ccc(F)cc3)nc12`, the Potency was inconclusive: 11.2 µM [inhibitor, partial curve].
In the case of `COc1ccc(OCC(=O)NCc2ccc3c(c2)CCN3C(=O)c2ccccc2)cc1`, the Potency is reported as inconclusive: 3.16 µM [inhibitor, full curve].
For `O=C(CCCNS(=O)(=O)c1ccccc1)NCc1ccco1`, the “activity change, negative = inhibition” value was inactive: -6.98%.
In the case of `COc1ccc(Cl)cc1NC(=O)c1cc(S(=O)(=O)NC2CCCCCC2)ccc1F`, the Potency is reported as inconclusive: 35.5 µM [inhibitor, partial curve, poor fit].
